Assay results as given in patent US20240010741A1.
Changes are numbered by the printed parent chain. No constants are given. Whether binding was seen depends on the method and setting. Some results given as binding are weak or reduced against the parent protein; the word gives no strength.

Amino acid sequences for entries named in this document (tags omitted). A change or cut given only in a name is not applied to a line headed by its entry. Chains listed by the source or under a name are the forms on record and can include a tag or linker. Residues count along the entry.
UniProt P25942: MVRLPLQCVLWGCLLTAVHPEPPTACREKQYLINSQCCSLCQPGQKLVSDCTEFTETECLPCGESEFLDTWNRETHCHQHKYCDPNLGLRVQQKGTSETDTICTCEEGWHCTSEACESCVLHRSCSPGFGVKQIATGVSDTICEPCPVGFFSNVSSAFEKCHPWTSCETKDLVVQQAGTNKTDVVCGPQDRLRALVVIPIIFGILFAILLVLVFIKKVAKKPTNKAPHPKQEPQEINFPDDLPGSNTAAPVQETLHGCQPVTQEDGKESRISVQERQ
cell-expressed CD40: residues 21-277 of P25942
HIS-tagged CD40 recombinant protein (Acro Biosystems): residues 21-193 of P25942
soluble cynomolgus monkey CD40 monomeric protein (Acro Biosystems) (G7PG38, form named): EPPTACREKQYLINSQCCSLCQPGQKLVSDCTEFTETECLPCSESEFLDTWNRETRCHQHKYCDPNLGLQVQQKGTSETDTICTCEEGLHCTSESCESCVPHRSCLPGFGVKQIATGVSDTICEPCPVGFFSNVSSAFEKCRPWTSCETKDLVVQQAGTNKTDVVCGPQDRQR

B1: MAB-16-0262 (antibody, V domains shown)
VH: EVQLEESGGGLVQPGGSLRLSCAASGFDFSTNAMCWVRQAPGKGLEWVACIAAGSSIITYYASWAKGRFTISKDTSKTTLYLQMNSLRAEDTAVYFCARGLSRFALWGQGTLVTVSS
VL: DIVMTQSPSSLSASVGDRVTITCQASQSISSYLSWYQQKPGQAPKLLIYLTSTLASGVPSRFSGSGSGTDFTLTISSLQPEDFATYYCQGYYSSSSYVSNGFGQGTKVVIK
B2: MAB-16-0451 (antibody, V domains shown)
VH: B1 VH with T31S, A33T, A52Y, I57G, I58S, T75I, V94T, A105S
VL: DIVMTQSPSSLSASVGDRVTITCQASQSISNYLAWYQQKPGQAPKLLIYDASKLASGVPSRFSGSGSGTDFTLTISSLQPEDFATYYCQGGDYYGSSYVVAFGGGTKVVIK
B3: MAB-16-0464 (antibody, V domains shown)
VH: EVQLEESGGGLVQPGGSLRLSCAASGFDFSSNAMSWVRQAPGKGLEWVGTIYAGSNGNTDYASWAKGRFTISKDTSKTTLYLQMNSLRAEDTATYFCARGASYFTLWGQGTLVTVSS
VL: DIVMTQSPSSLSASVGDRVTITCQASESVVSNNRLAWYQQKPGQAPKLLIYLASTLPSGVPSRFSGSGSGTDFTLTISSLQPEDFATYYCAGYKSSSTDGTAFGQGTKVVIK
B4: MAB-16-0406 (antibody, V domains shown)
VH: EVQLEESGGGLVQPGGSLRLSCAASGIDFSRYYYMCWVRQAPGKGPEWVACYSNGDGSTYYASWAKGRFTISKDTSKTTLYLQMNSLRAEDTATYFCARGADYSAGAAAFNLWGQGTLVTVSS
VL: DIQMTQSPSSLSASVGDRVTITCQASESIGNALVWYQQKPGQAPKLLIYRASILASGVPSRFSGSGSGTDFTLTISSLQPEDFATYYCQDYYGSSTEYNTFGQGTKVVIK
B5: MAB-16-0267 (antibody, V domains shown)
VH: EVQLEESGGDLVQPGASLRLSCAASGFDFNSNAMSWVRQAPGKGLEWVASIYAGGSGSTYYASWAKGRFTISKDTSKTTLYLQMNSLRAEDTATYFCARGITRLPLWGQGTLVTVSS
VL: DIQMTQSPSSLSASVGDRVTITCQASQSISSYLAWYQQKPGQAPKLLIYDASKLASGVPSRFSGSGSGTDFTLTISSLQPEDFATYYCQGTYYGSTTISAFGQGTKVVIK
B6: MAB-16-0377 (antibody, V domains shown)
VH: EVQLEESGGGLVQPGASLRLSCAASGFSFSGYWMCWVRQAPGKGLEWVGCIYTNSGVTYYANWAKGRFTISKDTSKTTLYLQMNSLRAEDTATYFCARGGAIYNDYDYAFYYSLWGQGTLVTVSS
VL: B1 VL with S34A, L50K, T51A, G90S, S93G, Y97I, V98S, S99Y, G101A
B7: MAB-16-0489 (antibody, V domains shown)
VH: EVQLEESGGGLVQPGASLRLSCAASGIDFSRYFYVCWVRQAPGKGLEWVGCFANHDDSIYYAGWMNGRFTISKDTSKTTLYLQMNSLRAEDTATYFCARGVDYTVGYGGAAFNLWGQGTLVTVSS
VL: DIVMTQSPSSLSASVGDRVTITCQASQSIGSYLSWYQQKPGQAPKLLIYRATTLASGVPSRFSGSGSGTDFTLTISSLQPEDFATYYCQSYYRDSSSSAFGQGTKVVIK
B8: MAB-16-0346 (antibody, V domains shown)
VH: B3 VH with S31T, M34V, T50S, Y52S, N56S, N58S, D60Y, A101Y, S102T, F104L
VL: DIVMTQSPSSLSASVGDRVTITCQASHSISSTYLSWYQQKPGQAPKLLIYRASTLASGVPSRFSGSGSGTDFTLTISSLQPEDFATYYCQYTDYGSSYVSTFGQGTKVVIK
B9: MAB-16-0388 (antibody, V domains shown)
VH: B3 VH with E5V, T50I, N56S, N58S, D60Y, S102T, F104I
VL: DIVMTQSPSSLSASVGDRVTITCQASQSIGSYLAWYQQKPGQAPKLLIYRASTLASGVPSRFSGSGSGTDFTLTISSLQPEDFATYYCQGYYYSTTTTTYDSSAFGQGTKVVIK
B10: MAB-16-0325 (antibody, V domains shown)
VH: B3 VH with D28S, L45P, G49V, N56S, N58S, D60Y, S102T, F104L
VL: DIVMTQSPSSLSASVGDRVTITCQASQSISNYLSWYQQKPGQAPKLLIYRASTLPSGVPSRFSGSGSGTDFTLTISSLQPEDFATYYCQGYYYSGTTYDSTAFGQGTKVVIK
B11: MAB-16-0386 (antibody, V domains shown)
VH: B5 VH with A24V, N30S, A49S, G55S, T75A, I101V
VL: B5 VL with Q3V, K53T, Y92V, T96S
B12: MAB-16-0484 (antibody, V domains shown)
VH: B4 VH with M35I, Y52F, S53A, A105G
VL: B4 VL with E27Q, G30S, N31S, A32R, V34A, I53T, T100A
B13: MAB-16-0400 (antibody, V domains shown)
VH: EVQLEESGGGLVQPGGSLRLSCAASGIDFSRYFYMCWVRQAPGKGLEWVACIGPGVSGDTYYASWAKGRFTISGDTSKTTLYLQMNSLRAEDTATYFCARGVDYTYGDAGAAFNLWGQGTLVTVSS
VL: DIVMTQSPSSLSASVGDRVTITCQASQSISSYLAWYQQKPGQAPKLLIYRASILASGVPSRFSGSGSGTDFTLTISSLQPEDFATYYCQTYYSSRTYSYGSPNAFGQGTKVVIK
B14: MAB-16-0283 (antibody, V domains shown)
VH: EVQLEESGGDLVQPGASLRLSCAASGFSFSFSYWICWVRQAPGKGLELVSCIYTTSGSTYYASWAKGRFTISIDNSKTTLYLQMNSLRAEDTATYFCARSSGVSYPSYFHLWGQGTLVTVSS
VL: DIQMTQSPSSLSASVGDRVTITCQASQSISSYLAWYQQKPGQAPKLLIYSASKLPSGVPSRFSGSGSGTDFTLTISSLQPEDFATYHCQTYYYSSSSSYDYGFGQGTKVVIK

Biological target: cell-expressed CD40 (UniProt P25942)
Assay: flow cytometry on HEK-Blue-CD40L cells preincubated with antibody at its EC90 concentration, then CD40L-mouse IgG2a Fc 0 to 10000 ng/ml; Alexa Fluor 488 anti-human IgG [Detection of anti-CD40 antibody binding]

binding	Binder
binds	B1
binds	B2
binds	B3
binds	B4

Biological target: HIS-tagged CD40 recombinant protein (Acro Biosystems) (UniProt P25942)
Assay: ELISA: coated antibody captures HIS-CD40 (330 ng/ml) preincubated with anti-HIS-peroxidase, no competing antibody

binding	Binder
binds	B1
binds	B2
binds	B3
binds	B5
binds	B4

Biological target: cell-expressed CD40 (UniProt P25942)
Assay: pulse chase assay on HEK-Blue-CD40L cells, antibody 0.8 µg/ml for 15 min, Alexa-488 secondary antibody, high content imaging

binding	Binder
binds	B1
binds	B6
binds	B2
binds	B7
binds	B8
binds	B9
binds	B3
binds	B10
binds	B5
binds	B11
binds	B12
binds	B13
binds	B14
binds	B4

Biological target: soluble cynomolgus monkey CD40 monomeric protein (Acro Biosystems) (cynomolgus monkey) (UniProt G7PG38)
Assay: SPR Biacore T200, antibody captured via anti-human Fc

binding	Binder
binds	B1
binds	B2
binds	B3
